# Laboratory results from the supplement of paper PMC8728848.
# The list shows a part of the results.
# Columns and labels:
# Test in all cases: glycan array binding signal (z-score within array); higher = stronger binding
# Details in all cases: glycan notation: IUPAC condensed, linker removed; mutation: D224N
# [1] = molecular target: Neu5Ac(a2-6)GlcNAc(b1-4)GlcNAc
# Outline: (§1)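 The Consortium for Functional Glycomics database supplied 3228 glycan arrays, of which those lacking an available protein sequence were dropped. The binding signal, a within-array Z-score, was averaged across arrays of the same protein sequence and across linkers. Negative scores can be read as non-binding.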
# [2] = molecular target: Neu5Ac(a2-6)GlcNAc(b1-4)GlcNAc(b1-4)GlcNAc
# Outline: as §1
# Neu5Ac(a2-8)Neu5Ac = molecular target: Neu5Ac(a2-8)Neu5Ac
# Outline: as §1
# [3] = molecular target: Neu5Ac(a2-8)Neu5Ac(a2-3)Gal(b1-3)GalNAc(b1-4)[Neu5Ac(a2-3)]Gal(b1-4)Glc
# Outline: as §1
# [4] = molecular target: Neu5Ac(a2-8)Neu5Ac(a2-3)Gal(b1-3)GalNAc(b1-4)[Neu5Ac(a2-8)Neu5Ac(a2-3)]Gal(b1-4)Glc
# Outline: as §1
# [5] = molecular target: Neu5Ac(a2-8)Neu5Ac(a2-3)Gal(b1-4)Glc
# Outline: as §1
# [6] = molecular target: Neu5Ac(a2-8)Neu5Ac(a2-3)Gal(b1-4)GlcNAc
# Outline: as §1
# [7] = molecular target: Neu5Ac(a2-8)Neu5Ac(a2-3)[Gal(b1-3)GalNAc(b1-4)]Gal(b1-4)Glc
# Outline: as §1
# [8] = molecular target: Neu5Ac(a2-8)Neu5Ac(a2-3)[GalNAc(b1-4)]Gal(b1-4)Glc
# Outline: as §1
# [9] = molecular target: Neu5Ac(a2-8)Neu5Ac(a2-8)Neu5Ac
# Outline: as §1
# [10] = molecular target: Neu5Ac(a2-8)Neu5Ac(a2-8)Neu5Ac(a2-3)Gal(b1-4)Glc
# Outline: as §1
# [11] = molecular target: Neu5Ac(a2-8)Neu5Ac(a2-8)Neu5Ac(a2-3)[Gal(b1-3)GalNAc(b1-4)]Gal(b1-4)Glc
# Outline: as §1
# [12] = molecular target: Neu5Ac(a2-8)Neu5Ac(a2-8)Neu5Ac(a2-3)[GalNAc(b1-4)]Gal(b1-4)Glc
# Outline: as §1
# [13] = molecular target: Neu5Ac(a2-8)Neu5Ac(a2-8)Neu5Ac(a2-8)Neu5Ac(a2-3)[GalNAc(b1-4)]Gal(b1-4)Glc
# Outline: as §1
# [14] = molecular target: Neu5Ac(a2-8)Neu5Gc(a2-3)Gal(b1-4)GlcNAc
# Outline: as §1
# [15] = molecular target: Neu5Ac(b2-6)Gal(b1-4)GlcNAc
# Outline: as §1
# Neu5Ac(b2-6)GalNAc = molecular target: Neu5Ac(b2-6)GalNAc
# Outline: as §1
# [16] = molecular target: Neu5Ac9Ac(a2-3)Gal(b1-3)GlcNAc
# Outline: as §1
# [17] = molecular target: Neu5Ac9Ac(a2-3)Gal(b1-4)GlcNAc
# Outline: as §1
# [18] = molecular target: Neu5Ac9Ac(a2-6)Gal(b1-4)GlcNAc
# Outline: as §1
# [19] = molecular target: Neu5Gc(a2-3)Gal(b1-3)GlcNAc
# Outline: as §1
# [20] = molecular target: Neu5Gc(a2-3)Gal(b1-3)[Fuc(a1-4)]GlcNAc
# Outline: as §1
# Neu5Gc(a2-3)Gal(b1-4)Glc = molecular target: Neu5Gc(a2-3)Gal(b1-4)Glc
# Outline: as §1
# [21] = molecular target: Neu5Gc(a2-3)Gal(b1-4)GlcNAc
# Outline: as §1
# [22] = molecular target: Neu5Gc(a2-3)Gal(b1-4)GlcNAc(b1-3)Gal(b1-4)GlcNAc(b1-2)Man(a1-3)[Neu5Gc(a2-3)Gal(b1-4)GlcNAc(b1-3)Gal(b1-4)GlcNAc(b1-2)Man(a1-6)]Man(b1-4)GlcNAc(b1-4)GlcNAc
# Outline: as §1
# [23] = molecular target: Neu5Gc(a2-3)Gal(b1-4)[Fuc(a1-3)]GlcNAc
# Outline: as §1
# [24] = molecular target: Neu5Gc(a2-6)Gal(b1-4)GlcNAc
# Outline: as §1
# Neu5Gc(a2-6)GalNAc = molecular target: Neu5Gc(a2-6)GalNAc
# Outline: as §1
# [25] = molecular target: Neu5Gc(a2-8)Neu5Ac(a2-3)Gal(b1-4)GlcNAc
# Outline: as §1
# [26] = molecular target: Neu5Gc(a2-8)Neu5Gc(a2-3)Gal(b1-4)GlcNAc
# Outline: as §1
# [27] = molecular target: Neu5Gc(a2-8)Neu5Gc(a2-3)Gal(b1-4)GlcNAc(b1-3)Gal(b1-4)GlcNAc
# Outline: as §1
# [28] = molecular target: Neu5Gc(a2-8)Neu5Gc(a2-6)Gal(b1-4)GlcNAc
# Outline: as §1
# [29] = molecular target: Neu5Gc(b2-6)Gal(b1-4)GlcNAc
# Outline: as §1
binder,measurement,setting,value
a L Fucosidase (Thermotoga maritima) (protein) MASMKPRYKPDWESLREHTVPKWFDKAKFGIFIHWGIYSVPGWATPTGELGKVPMDAWFFQNPYAEWYENSLRIKESPTWEYHVKTYGENFEYEKFADLFTAEKWDPQEWADLFKKAGAKYVIPTTKHHDGFCLWGTKYTDFNSVKRGPKRDLVGDLAKAVREAGLRFGVYYSGGLDWRFTTEPIRYPEDLSYIRPNTYEYADYAYKQVMELVDLYLPDVLWNNMGWPEKGKEDLKYLFAYYYNKHPEGSVNDRWGVPHWDFKTAEYHVNYPGDLPGYKWEFTRGIGLSFGYNRNEGPEHMLSVEQLVYTLVDVVSKGGNLLLNVGPKGDGTIPDLQKERLLGLGEWLRKYGDAIYGTSVWERCCAKTEDGTEIRFTRKCNRIFVIFLGIPTGEKIVIEDLNLSAGTVRHFLTGERLSFKNVGKNLEITVPKKLLETDSITLVLEAVEE,glycan array binding signal (z-score),[1],-0.008
same,glycan array binding signal (z-score),[2],-0.648
same,glycan array binding signal (z-score),Neu5Ac(a2-8)Neu5Ac,-0.225
same,glycan array binding signal (z-score),[3],1.06
same,glycan array binding signal (z-score),[4],0.471
same,glycan array binding signal (z-score),[5],-0.893
same,glycan array binding signal (z-score),[6],0.131
same,glycan array binding signal (z-score),[7],-0.705
same,glycan array binding signal (z-score),[8],0.295
same,glycan array binding signal (z-score),[9],-0.45
same,glycan array binding signal (z-score),[10],0.654
same,glycan array binding signal (z-score),[11],-0.502
same,glycan array binding signal (z-score),[12],0.362
same,glycan array binding signal (z-score),[13],-0.058
same,glycan array binding signal (z-score),[14],0.814
same,glycan array binding signal (z-score),[15],-0.799
same,glycan array binding signal (z-score),Neu5Ac(b2-6)GalNAc,0.396
same,glycan array binding signal (z-score),[16],-0.255
same,glycan array binding signal (z-score),[17],-0.166
same,glycan array binding signal (z-score),[18],-0.177
same,glycan array binding signal (z-score),[19],-1.22
same,glycan array binding signal (z-score),[20],0.083
same,glycan array binding signal (z-score),Neu5Gc(a2-3)Gal(b1-4)Glc,-0.385
same,glycan array binding signal (z-score),[21],0.097
same,glycan array binding signal (z-score),[22],1.05
same,glycan array binding signal (z-score),[23],-0.05
same,glycan array binding signal (z-score),[24],-0.094
same,glycan array binding signal (z-score),Neu5Gc(a2-6)GalNAc,0.295
same,glycan array binding signal (z-score),[25],-0.329
same,glycan array binding signal (z-score),[26],-0.573
same,glycan array binding signal (z-score),[27],-0.813
same,glycan array binding signal (z-score),[28],-0.821
same,glycan array binding signal (z-score),[29],-0.305

# Reformatted with bars between the fields: entries from further up.
binder | measurement | setting | value
a L Fucosidase (Thermotoga maritima) (protein) MASMKPRYKPDWESLREHTVPKWFDKAKFGIFIHWGIYSVPGWATPTGELGKVPMDAWFFQNPYAEWYENSLRIKESPTWEYHVKTYGENFEYEKFADLFTAEKWDPQEWADLFKKAGAKYVIPTTKHHDGFCLWGTKYTDFNSVKRGPKRDLVGDLAKAVREAGLRFGVYYSGGLDWRFTTEPIRYPEDLSYIRPNTYEYADYAYKQVMELVDLYLPDVLWNNMGWPEKGKEDLKYLFAYYYNKHPEGSVNDRWGVPHWDFKTAEYHVNYPGDLPGYKWEFTRGIGLSFGYNRNEGPEHMLSVEQLVYTLVDVVSKGGNLLLNVGPKGDGTIPDLQKERLLGLGEWLRKYGDAIYGTSVWERCCAKTEDGTEIRFTRKCNRIFVIFLGIPTGEKIVIEDLNLSAGTVRHFLTGERLSFKNVGKNLEITVPKKLLETDSITLVLEAVEE | glycan array binding signal (z-score) | [5] | -0.893
same | glycan array binding signal (z-score) | [6] | 0.131
